# Measurements reported in the supplement of paper PMC3334620.
# In all, about 33,000 sequences were measured (“E-score (-0.5 to 0.5)”: median about -0.015, highest 2% from about 0.3 on). Some of the results follow.
# Target: T1, Abf1 (UniProt P14164)
# T1 sequence: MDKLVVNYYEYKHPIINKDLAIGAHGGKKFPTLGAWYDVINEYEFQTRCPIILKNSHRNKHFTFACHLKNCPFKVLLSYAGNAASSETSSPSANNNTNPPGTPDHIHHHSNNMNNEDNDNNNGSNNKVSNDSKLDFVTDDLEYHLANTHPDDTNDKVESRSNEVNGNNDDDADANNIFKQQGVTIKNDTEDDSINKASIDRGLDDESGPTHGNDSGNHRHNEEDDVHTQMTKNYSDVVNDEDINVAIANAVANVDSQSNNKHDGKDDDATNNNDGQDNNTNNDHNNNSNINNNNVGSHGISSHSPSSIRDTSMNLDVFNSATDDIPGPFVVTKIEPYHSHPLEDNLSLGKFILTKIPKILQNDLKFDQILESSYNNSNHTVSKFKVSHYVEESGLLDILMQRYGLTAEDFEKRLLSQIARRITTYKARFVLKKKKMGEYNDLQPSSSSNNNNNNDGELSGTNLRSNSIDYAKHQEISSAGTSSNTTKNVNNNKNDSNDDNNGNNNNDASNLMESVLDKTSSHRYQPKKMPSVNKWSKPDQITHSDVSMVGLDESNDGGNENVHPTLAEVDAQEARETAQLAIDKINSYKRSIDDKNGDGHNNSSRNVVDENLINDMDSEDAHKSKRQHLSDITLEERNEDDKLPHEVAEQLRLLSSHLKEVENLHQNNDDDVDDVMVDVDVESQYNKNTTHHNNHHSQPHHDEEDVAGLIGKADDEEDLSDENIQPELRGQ
# Assay: PBM E-score (8-mer binding enrichment) (E-score (-0.5 to 0.5)); higher = stronger / more preferred TF binding
# Details: protein concentration: 200 nM; construct: GST-full length
# How it was run: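 The E-score, a modified Wilcoxon-Mann-Whitney statistic, was computed by the Universal PBM Analysis Suite for every ungapped eight-base word pooled with its reverse complement. Scans behind it were normalised with masliner after bound GST-tagged yeast transcription factors were detected with fluorescent anti-GST. The proteins, at about 100-200 nM, had been applied to universal all-10-mer Agilent arrays made double-stranded by primer extension.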
row,Sequence,PBM E-score
1,AGTTTGCG,-0.137
2,CGAACTCA,-0.0537
3,ATACTCCA,-0.0491
4,ACCCTGTG,-0.129
5,CCCGGTTA,-0.0871
6,GCAGCCAC,-0.139
7,GCGGTTCC,-0.159
8,AAACGCGT,0.0484
9,AACTCCAT,-0.116
10,CAATCTCA,-0.0871
11,AAACCAGT,-0.179
12,CGGCCGCA,-0.17
13,GTGATTAA,0.249
14,GATTCTAC,0.0143
15,ACGGAATC,0.0606
16,AAAAGTCG,-0.0916
17,GCACGACA,0.338
18,TCGAGAGA,-0.0295
19,AGCTGTGA,0.0832
20,CTTTAGTA,-0.00184
21,AGAATGAT,0.33
22,GTTCGTAA,0.234
23,GTTGTCCA,0.121
24,AAATCCAG,0.0334
25,AAGTACTC,-0.141

row,Sequence,PBM E-score
1,CAATAGTA,0.0115
2,ACGCTTAT,-0.181
3,GACCAGGC,-0.226
4,TAATTCCA,0.0387
5,ATTTGGAA,0.117
6,CTAGGATC,0.0897
7,GAGTCCTA,-0.159
8,ATAGGGTA,-0.13
9,GCAGAGCA,-0.216
10,AACTCCAC,0.108
11,AAGGTCAA,-0.122
12,CTTGCGAC,0.113
13,AGAGACAG,-0.135
14,AGATTAGC,0.0243
15,GTGCAGAA,0.109
16,TGAAGGCA,-0.126
17,CATGCATA,0.033
18,TCGGTGCA,-0.0272
19,TAGTGGAA,-0.115
20,CTCACATA,-0.139
21,CGGCCCCA,-0.305
22,ATCGAGCC,-0.175
23,GCTTAACA,-0.0819
24,GCGCCGGA,-0.165
25,CGGCGATC,0.0485

row,Sequence,PBM E-score
1,CCGGCAGA,-0.167
2,AAAGGTTC,-0.197
3,TCAGTGCA,-0.133
4,CAGCAGGA,-0.0545
5,AACCGGGA,-0.0161
6,GAACACAC,-0.136
7,CTTGGTCC,-0.211
8,CACAACAG,-0.303
9,AGAATACG,-0.00499
10,AAGGGAAG,0.0116
11,CAATGGTC,-0.0437
12,CAAATCCG,-0.161
13,AAGGTGTA,-0.0595
14,CACTGCCA,0.0191
15,GGGGGACC,-0.429
16,CGATCTAA,0.0449
17,AACCCAGT,-0.06
18,GCGACTAC,-0.134
19,ACAACTCC,0.0276
20,ACTGGCTG,0.00013
21,AAAGCATT,0.0497
22,CCATGCAA,0.196
23,AATGCTCC,-0.223
24,CAACCTAG,-0.0549
25,AGCCTGGG,-0.196

# Single values from the results shown.
# CAACCTAG – PBM E-score: -0.0549
# CCATGCAA – PBM E-score: 0.196
# AACCCAGT – PBM E-score: -0.06
# AATGCTCC – PBM E-score: -0.223
# CACTGCCA – PBM E-score: 0.0191
# CGATCTAA – PBM E-score: 0.0449
# AAAGCATT – PBM E-score: 0.0497

# Following part:

row,Sequence,PBM E-score
1,CAGTCCCA,-0.166
2,GTCGAAAA,0.107
3,ATAATGGC,0.0585
4,AGAAGTTC,0.03
5,CTGCTTCC,-0.261
6,CTATACGC,-0.0573
7,TGGCGACA,0.0957
8,AATTAACA,0.0377
9,TAAAACTA,0.0232
10,ATCCGGGG,0.00013
11,CTCGTTCA,0.111
12,TCAAGTAA,0.0816
13,CTTAAATC,0.221
14,GCGTTCAA,-0.0872
15,ATAAGCCG,-0.0988
16,ACGAAGTG,0.301
17,ATTTGTGG,0.165
18,ACAATTAT,0.242
19,ACCAGACT,-0.0471
20,CCTAAAAA,-0.0486
21,TGGCAAAA,0.0118
22,CCAGTTAC,-0.0955
23,ATCCCAGG,-0.13
24,GCCGTTAA,0.163
25,AAGAGGTC,-0.117

row,Sequence,PBM E-score
1,ATCAACTG,0.00191
2,ACAGCCTA,0.0227
3,GCATCCTA,0.0741
4,CAGGAGAC,-0.0274
5,CTTTGCAC,0.209
6,ACATAGCG,-0.0126
7,ATATAGTG,0.26
8,ACCGCACG,0.12
9,ACTCGCAC,-0.214
10,CCCCTATC,-0.125
11,GAAGAGCC,-0.0564
12,AGTCCGTA,0.175
13,GCCCCAAC,-0.0188
14,AGGTCATC,0.161
15,AATGTTCC,-0.00373
16,CCCGTCGG,-0.0638
17,CAATTGCG,-0.115
18,GTTCACTA,0.115
19,AGTATCTA,0.153
20,CCTTAGGC,-0.0403
21,AGTGTGCG,-0.077
22,GGATCTGA,-0.135
23,ATTCGTCA,0.164
24,ACCCTGAC,-0.178
25,ATGGTATC,0.109

row,Sequence,PBM E-score
1,GTTATTGA,0.152
2,CAATGGGA,-0.128
3,ACGATTCC,0.0784
4,ATGGTGTC,-0.0329
5,GGGAAGTA,-0.0781
6,TCCCCGAA,-0.215
7,GGTCCTAA,0.108
8,CGCCTAGA,-0.0173
9,CATAGGCA,-0.167
10,GACGCATC,0.2
11,GTCACTTA,0.355
12,ATGGGCCG,-0.0454
13,TTAATTAA,-0.0568
14,ACGACTCA,0.121
15,CAATCGCA,0.024
16,CCGCTGTA,-0.135
17,CGCCCACG,-0.0798
18,AATTTAGA,0.0649
19,GATTATTA,0.0366
20,CCGGGTCC,-0.221
21,TAATACAA,0.141
22,AAGATTAT,0.0293
23,TCCCTTAA,-0.027
24,GTTGCAGA,0.084
25,TTCTACAA,0.0585

# Looked up one by one from above:
row,Sequence,PBM E-score
21,TAATACAA,0.141
20,CCGGGTCC,-0.221
1,GTTATTGA,0.152

# (continued)

row,Sequence,PBM E-score
1,GAATGGAC,0.0322
2,CCGTATTA,0.206
3,AAATATGC,0.0361
4,TAGGTATA,0.0595
5,TCCGCCCA,-0.158
6,GGTGGCTA,-0.158
7,AAATCCCA,0.0425
8,CCAACCGC,0.00355
9,ATATCTGA,0.105
10,ACCATAAG,-0.0923
11,AGACGACA,0.264
12,CATTCCCA,-0.0683
13,ATGCCGCA,0.0489
14,ACCTGGAA,0.0807
15,GAGATTGA,-0.175
16,TTCACAAA,0.00384
17,CAGGGATA,0.0311
18,CAGACGTA,-0.0804
19,GACCAAGA,-0.144
20,ACGCCCCC,-0.311
21,CGCACGTA,0.0987
22,GCTCATCC,-0.138
